Drawing on article PMC12097129, this text covers binding for two substances.

Sequences of proteins named here, by UniProt entry; tags and fusion partners are left off.
UniProt Q9ULU4: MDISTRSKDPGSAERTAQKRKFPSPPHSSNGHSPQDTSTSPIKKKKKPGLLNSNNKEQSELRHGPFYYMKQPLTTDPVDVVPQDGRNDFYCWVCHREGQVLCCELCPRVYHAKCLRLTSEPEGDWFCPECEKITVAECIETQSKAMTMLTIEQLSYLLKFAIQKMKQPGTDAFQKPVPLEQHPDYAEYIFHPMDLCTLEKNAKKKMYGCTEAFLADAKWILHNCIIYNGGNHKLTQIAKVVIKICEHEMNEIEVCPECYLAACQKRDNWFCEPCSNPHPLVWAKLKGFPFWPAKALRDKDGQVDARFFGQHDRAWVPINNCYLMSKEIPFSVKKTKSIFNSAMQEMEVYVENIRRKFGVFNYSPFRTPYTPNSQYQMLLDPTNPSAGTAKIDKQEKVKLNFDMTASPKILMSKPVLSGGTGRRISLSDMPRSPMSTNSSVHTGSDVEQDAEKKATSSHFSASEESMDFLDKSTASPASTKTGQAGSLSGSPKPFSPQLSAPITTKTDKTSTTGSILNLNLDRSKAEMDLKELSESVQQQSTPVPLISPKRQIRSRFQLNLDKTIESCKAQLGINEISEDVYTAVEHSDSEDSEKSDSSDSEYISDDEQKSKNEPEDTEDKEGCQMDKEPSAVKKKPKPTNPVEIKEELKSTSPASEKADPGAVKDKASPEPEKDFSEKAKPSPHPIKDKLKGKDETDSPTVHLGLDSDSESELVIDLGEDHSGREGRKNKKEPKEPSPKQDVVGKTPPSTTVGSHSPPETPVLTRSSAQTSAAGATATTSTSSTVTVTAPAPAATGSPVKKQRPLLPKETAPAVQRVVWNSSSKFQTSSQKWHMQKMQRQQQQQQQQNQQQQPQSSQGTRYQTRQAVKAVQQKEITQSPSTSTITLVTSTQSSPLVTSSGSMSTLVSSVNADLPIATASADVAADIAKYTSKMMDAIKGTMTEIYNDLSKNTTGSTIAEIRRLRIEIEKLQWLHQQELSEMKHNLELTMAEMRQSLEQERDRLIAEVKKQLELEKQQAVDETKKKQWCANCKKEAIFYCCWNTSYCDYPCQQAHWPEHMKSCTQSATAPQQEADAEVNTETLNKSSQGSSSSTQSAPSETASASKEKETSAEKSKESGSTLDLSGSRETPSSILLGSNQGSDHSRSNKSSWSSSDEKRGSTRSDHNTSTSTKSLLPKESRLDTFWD
UniProt Q80U70: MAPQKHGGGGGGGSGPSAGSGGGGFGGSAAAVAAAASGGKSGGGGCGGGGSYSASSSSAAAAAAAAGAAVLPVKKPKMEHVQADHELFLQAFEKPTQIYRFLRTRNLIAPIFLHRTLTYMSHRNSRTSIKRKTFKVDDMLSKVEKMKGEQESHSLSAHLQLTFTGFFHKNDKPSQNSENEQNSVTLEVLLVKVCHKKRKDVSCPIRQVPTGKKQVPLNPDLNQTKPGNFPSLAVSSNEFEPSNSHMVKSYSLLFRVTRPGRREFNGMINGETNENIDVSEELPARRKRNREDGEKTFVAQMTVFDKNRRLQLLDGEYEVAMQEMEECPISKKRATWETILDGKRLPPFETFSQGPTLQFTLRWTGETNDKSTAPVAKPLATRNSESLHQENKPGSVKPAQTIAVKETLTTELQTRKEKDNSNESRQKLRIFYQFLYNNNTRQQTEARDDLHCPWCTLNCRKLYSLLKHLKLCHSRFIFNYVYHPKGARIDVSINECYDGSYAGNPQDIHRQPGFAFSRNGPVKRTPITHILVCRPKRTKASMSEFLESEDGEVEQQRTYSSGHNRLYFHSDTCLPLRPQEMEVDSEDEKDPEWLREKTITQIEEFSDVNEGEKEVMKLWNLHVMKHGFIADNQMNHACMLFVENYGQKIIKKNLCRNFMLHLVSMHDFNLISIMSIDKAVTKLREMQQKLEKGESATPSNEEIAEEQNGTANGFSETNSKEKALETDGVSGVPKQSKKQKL
UniProt Q61188: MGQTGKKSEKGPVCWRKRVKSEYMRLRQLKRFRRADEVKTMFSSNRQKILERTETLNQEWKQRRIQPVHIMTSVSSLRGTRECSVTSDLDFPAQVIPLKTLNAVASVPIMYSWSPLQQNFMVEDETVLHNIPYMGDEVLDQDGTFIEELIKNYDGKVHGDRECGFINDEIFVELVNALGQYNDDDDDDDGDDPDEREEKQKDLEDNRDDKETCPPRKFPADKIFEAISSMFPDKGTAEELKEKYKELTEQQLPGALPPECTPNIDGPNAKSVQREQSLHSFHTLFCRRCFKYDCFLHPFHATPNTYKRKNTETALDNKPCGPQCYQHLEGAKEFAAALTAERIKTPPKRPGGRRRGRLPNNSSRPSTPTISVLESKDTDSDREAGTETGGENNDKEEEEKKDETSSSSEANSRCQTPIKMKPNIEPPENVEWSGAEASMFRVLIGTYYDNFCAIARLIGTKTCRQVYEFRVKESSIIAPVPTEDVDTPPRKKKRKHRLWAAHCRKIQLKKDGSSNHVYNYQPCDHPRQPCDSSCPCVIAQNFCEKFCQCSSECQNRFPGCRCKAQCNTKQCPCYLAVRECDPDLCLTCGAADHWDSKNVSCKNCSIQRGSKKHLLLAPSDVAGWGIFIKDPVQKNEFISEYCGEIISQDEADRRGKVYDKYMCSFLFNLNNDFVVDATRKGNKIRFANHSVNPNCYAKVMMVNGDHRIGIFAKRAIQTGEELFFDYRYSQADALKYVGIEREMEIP

The assay has as its target HA-tagged full-length human RACK7 protein (human) (UniProt Q9ULU4). The experiment in a line: pull-down; purified HA-RACK7 incubated with dialysed nuclear extract of WT mouse forebrain for 6 h at 4 °C in 20 mM Tris-HCl pH 7.3, 150 mM KCl, 0.1% NP-40; captured on anti-HA beads; immunoblot; only the target purified. For orientation: Immunoblotting shows a protein as a band on a membrane.

Results are given in words; binding and its absence hold for the method and conditions named. In cells and extracts the contact can be indirect. Some results given as binding are weak or reduced against the parent protein; the word gives no strength.

As for “Suppressor of Zeste 12 homolog (SUZ12), endogenous mouse (from UniProt Q80U70 1-741)”, the binding result was “binds”.

With “Enhancer of Zeste Homolog 2 (EZH2), endogenous mouse (from UniProt Q61188 1-746)”, the binding result is recorded as “binds”.
